The supplement of paper PMC10849652
The list shows a part of the results.

Sequences of proteins named here, by UniProt entry; tags and fusion partners are left off. A change or cut given only in a name is not applied to a line headed by its entry.
UniProt Q9NVU0: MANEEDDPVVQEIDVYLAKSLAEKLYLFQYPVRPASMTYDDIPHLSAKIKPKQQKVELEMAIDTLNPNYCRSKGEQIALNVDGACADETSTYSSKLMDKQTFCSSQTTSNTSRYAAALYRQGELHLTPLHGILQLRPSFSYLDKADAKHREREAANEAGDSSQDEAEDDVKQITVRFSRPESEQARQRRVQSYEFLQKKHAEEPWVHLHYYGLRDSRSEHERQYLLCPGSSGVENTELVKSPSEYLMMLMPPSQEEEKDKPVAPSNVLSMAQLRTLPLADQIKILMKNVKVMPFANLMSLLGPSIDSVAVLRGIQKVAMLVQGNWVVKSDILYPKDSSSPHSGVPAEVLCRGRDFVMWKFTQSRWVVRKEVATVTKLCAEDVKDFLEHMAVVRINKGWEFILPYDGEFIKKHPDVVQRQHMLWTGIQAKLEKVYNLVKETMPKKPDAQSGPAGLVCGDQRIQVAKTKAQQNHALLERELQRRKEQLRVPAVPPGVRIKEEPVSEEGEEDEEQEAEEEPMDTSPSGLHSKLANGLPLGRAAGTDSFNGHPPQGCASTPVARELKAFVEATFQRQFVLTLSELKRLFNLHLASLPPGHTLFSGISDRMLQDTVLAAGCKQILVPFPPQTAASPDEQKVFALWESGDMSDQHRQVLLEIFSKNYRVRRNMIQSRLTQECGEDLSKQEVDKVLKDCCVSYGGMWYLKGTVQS
UniProt Q9H5K3: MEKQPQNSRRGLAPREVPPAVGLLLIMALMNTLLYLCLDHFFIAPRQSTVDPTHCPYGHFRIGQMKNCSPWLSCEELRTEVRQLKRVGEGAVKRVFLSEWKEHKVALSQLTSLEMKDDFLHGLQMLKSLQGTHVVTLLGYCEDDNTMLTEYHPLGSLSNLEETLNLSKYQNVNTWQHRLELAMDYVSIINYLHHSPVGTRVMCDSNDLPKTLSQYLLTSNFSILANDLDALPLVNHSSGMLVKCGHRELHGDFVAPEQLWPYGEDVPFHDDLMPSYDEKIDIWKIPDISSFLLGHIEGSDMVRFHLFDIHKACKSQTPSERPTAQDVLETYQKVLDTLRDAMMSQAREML
UniProt Q15054: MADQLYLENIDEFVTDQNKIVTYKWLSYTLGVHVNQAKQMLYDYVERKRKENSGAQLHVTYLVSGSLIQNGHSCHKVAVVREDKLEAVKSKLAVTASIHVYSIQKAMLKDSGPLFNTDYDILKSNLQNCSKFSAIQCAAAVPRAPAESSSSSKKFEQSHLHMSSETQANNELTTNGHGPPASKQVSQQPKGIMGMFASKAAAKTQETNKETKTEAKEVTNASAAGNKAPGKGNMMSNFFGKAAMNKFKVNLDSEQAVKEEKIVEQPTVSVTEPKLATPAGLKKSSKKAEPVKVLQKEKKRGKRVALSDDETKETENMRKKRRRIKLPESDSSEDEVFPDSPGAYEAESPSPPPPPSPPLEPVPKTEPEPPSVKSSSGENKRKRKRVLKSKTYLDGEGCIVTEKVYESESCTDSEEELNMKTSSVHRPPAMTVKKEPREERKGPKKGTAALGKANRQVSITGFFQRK
UniProt Q8IY26: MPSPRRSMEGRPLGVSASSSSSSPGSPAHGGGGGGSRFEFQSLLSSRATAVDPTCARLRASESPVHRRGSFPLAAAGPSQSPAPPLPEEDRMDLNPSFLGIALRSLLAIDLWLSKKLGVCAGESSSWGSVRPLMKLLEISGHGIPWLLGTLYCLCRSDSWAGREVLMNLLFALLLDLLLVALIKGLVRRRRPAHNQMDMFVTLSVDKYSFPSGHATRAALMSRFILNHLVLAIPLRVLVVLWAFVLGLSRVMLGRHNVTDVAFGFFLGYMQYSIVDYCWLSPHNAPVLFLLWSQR
UniProt P00491: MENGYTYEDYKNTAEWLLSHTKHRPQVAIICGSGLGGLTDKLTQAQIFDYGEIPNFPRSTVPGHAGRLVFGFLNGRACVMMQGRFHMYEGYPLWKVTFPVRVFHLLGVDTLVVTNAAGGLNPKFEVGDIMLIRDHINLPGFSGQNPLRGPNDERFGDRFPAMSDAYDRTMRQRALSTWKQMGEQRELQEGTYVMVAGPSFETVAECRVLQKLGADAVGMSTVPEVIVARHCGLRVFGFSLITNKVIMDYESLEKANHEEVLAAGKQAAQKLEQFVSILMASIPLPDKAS
UniProt O60664: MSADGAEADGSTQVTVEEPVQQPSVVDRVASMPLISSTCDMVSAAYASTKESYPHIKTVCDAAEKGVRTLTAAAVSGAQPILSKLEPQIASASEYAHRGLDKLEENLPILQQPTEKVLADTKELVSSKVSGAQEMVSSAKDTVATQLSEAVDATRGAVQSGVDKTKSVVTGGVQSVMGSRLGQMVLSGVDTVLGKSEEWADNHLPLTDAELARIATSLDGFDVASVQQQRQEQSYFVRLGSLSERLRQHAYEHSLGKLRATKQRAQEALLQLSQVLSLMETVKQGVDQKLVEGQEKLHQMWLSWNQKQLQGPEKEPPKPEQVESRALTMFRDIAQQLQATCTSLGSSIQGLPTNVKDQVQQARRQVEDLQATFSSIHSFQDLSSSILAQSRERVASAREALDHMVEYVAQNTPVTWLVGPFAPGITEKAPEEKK
UniProt Q9H2U2: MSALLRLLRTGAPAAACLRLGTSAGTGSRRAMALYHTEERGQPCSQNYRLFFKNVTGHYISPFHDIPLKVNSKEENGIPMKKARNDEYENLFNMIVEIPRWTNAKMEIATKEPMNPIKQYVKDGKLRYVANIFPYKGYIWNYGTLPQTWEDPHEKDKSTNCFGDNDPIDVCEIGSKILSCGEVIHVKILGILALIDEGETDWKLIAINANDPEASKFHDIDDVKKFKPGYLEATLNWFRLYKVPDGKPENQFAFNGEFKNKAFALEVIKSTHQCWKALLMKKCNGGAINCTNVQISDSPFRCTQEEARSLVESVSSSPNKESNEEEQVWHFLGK
UniProt Q14651: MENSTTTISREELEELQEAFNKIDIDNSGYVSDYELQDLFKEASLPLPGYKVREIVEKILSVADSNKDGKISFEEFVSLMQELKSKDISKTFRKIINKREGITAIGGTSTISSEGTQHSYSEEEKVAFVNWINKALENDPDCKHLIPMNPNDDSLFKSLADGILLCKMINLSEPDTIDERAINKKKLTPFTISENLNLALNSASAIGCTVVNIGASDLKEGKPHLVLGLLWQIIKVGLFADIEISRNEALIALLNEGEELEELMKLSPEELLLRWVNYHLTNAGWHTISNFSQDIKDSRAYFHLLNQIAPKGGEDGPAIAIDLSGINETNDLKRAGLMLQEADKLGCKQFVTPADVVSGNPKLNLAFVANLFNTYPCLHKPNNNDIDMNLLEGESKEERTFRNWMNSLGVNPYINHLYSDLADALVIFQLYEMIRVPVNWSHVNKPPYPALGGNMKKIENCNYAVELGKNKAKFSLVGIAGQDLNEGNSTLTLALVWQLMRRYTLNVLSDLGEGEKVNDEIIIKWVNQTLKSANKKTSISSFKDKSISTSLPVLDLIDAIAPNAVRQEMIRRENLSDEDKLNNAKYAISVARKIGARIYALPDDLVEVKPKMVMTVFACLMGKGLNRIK
UniProt P49005: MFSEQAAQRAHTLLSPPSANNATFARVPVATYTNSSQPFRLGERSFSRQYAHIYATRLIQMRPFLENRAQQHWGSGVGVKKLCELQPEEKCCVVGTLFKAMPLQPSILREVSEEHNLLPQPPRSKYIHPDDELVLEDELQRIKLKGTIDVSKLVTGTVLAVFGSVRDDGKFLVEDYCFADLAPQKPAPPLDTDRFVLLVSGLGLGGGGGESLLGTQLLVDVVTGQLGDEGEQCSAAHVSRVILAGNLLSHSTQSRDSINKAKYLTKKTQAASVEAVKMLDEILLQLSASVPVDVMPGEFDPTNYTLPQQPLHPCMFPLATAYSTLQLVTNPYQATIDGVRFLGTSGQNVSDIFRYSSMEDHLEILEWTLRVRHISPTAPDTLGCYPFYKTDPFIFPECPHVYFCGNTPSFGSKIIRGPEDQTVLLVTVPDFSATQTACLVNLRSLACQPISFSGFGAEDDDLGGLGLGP
UniProt Q06203, whole entry, looked up: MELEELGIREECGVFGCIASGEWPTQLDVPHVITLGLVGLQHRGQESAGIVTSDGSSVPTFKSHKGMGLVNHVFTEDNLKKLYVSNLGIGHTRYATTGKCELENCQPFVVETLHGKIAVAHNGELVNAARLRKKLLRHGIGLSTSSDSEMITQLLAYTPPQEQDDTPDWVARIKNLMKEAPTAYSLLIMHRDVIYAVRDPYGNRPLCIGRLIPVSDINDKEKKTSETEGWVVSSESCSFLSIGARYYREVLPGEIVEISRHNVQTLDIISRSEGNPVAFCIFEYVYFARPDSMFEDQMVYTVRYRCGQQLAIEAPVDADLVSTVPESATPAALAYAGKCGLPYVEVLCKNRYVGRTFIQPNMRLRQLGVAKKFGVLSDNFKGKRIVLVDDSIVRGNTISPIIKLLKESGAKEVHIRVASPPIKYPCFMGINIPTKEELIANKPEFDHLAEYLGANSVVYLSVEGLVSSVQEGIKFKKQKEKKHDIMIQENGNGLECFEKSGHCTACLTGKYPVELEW
UniProt Q14181: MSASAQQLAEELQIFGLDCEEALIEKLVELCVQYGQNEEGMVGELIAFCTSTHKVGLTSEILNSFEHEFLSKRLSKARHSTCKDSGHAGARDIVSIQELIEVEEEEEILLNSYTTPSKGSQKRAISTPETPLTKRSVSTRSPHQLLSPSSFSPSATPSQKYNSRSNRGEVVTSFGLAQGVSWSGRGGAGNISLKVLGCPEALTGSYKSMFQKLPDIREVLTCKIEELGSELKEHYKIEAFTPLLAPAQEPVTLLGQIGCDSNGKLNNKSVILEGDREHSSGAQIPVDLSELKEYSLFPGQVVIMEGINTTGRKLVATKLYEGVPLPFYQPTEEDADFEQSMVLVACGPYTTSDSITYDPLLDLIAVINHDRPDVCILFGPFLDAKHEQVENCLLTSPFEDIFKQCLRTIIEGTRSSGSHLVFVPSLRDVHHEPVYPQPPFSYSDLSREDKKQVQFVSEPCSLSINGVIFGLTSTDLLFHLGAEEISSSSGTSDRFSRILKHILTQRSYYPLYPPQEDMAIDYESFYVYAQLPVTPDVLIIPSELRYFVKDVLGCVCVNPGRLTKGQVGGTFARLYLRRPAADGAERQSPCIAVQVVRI
UniProt P09884: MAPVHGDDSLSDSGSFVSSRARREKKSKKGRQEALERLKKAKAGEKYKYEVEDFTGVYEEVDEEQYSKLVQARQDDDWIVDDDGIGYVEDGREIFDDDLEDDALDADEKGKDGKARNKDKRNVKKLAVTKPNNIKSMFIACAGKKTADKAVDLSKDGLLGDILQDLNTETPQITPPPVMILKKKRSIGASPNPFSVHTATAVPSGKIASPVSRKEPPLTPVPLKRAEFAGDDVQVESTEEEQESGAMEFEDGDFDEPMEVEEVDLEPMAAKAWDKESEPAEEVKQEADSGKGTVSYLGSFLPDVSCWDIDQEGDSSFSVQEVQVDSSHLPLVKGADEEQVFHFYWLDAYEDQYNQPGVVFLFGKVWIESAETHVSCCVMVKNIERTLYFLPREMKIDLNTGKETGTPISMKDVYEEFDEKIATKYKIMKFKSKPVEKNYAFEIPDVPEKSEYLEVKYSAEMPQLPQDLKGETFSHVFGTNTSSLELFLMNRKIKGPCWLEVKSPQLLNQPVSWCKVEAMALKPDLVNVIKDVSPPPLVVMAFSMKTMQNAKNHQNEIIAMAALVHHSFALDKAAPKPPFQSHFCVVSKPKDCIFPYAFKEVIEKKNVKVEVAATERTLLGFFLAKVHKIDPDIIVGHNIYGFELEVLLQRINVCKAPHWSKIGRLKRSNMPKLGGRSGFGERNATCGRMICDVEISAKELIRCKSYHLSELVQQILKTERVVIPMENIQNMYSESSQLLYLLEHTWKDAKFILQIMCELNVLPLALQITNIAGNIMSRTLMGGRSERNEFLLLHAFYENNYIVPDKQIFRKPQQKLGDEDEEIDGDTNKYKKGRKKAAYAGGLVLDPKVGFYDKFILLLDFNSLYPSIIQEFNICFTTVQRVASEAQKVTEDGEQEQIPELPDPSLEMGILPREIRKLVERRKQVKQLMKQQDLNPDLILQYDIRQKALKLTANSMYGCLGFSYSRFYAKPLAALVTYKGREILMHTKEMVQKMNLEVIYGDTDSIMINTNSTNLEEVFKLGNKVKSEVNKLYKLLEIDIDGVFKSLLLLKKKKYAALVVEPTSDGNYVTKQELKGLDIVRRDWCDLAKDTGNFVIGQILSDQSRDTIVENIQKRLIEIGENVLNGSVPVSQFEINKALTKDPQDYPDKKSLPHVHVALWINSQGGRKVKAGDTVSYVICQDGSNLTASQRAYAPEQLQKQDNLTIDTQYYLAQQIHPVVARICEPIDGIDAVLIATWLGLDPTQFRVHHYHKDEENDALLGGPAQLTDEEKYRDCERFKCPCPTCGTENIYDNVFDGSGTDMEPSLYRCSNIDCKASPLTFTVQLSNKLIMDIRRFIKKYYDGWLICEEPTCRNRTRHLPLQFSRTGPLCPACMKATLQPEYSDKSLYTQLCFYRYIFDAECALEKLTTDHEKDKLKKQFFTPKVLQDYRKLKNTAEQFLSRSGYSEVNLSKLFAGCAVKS

Columns and labels:
Experiment in all cases: log2 fold change, soluble protein after heating vs DMSO (PISA); higher = thermal stabilisation; K562 cells, 10 uM, 30 min; active = over 0.2 and 3.5 SD of the protein, either way, in both replicates (recomputed)
[1] = compound: CC1=C(C=C(C=C1)NC(=O)C2=CC(=CC=C2)C(C)(C)C#N)NC3=CC4=C(C=C3)N=CN(C4=O)C
How it was run: (§1)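 K562 cells at 2×10^6 cells/mL were exposed to 10 μM compound for 30 min, then aliquots were heated for 3 min across 48°C-58°C, pooled, and extracted in PBS containing 0.5% NP-40 at 4°C. The supernatant after 21,000xg for 90 min was taken as soluble protein and measured by TMTpro 16plex LC-MS/MS with channel sums equalised. Thermal stability is reported relative to control samples, with values from duplicates. Fold changes are given on a log2 scale.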

[2] = compound: CC1=C(C=C(C=C1)NC(=O)C2=CC(=CC=C2)N(C)C)NC(=O)C3=CC=C(C=C3)O
How it was run: as §1

[3] = compound: CC1=CC=C(C=C1)SC2=C3C=C(SC3=CN=C2)C(=O)N
How it was run: as §1

[4] = compound: CC1=NC(=CC=C1)C2=C(N=C(N2)C(C)(C)C)C3=CC4=NC=CN=C4C=C3
How it was run: as §1

Nexturastat A = compound: CCCCN(Cc1ccc(C(=O)NO)cc1)C(=O)Nc1ccccc1 [Nexturastat A]
How it was run: as §1

vemurafenib = compound: CCCS(=O)(=O)Nc1ccc(F)c(C(=O)c2c[nH]c3ncc(-c4ccc(Cl)cc4)cc23)c1F [vemurafenib]
How it was run: as §1

[5] = compound: CCCS(=O)(=O)Nc1ccc(F)c(C(=O)c2c[nH]c3ncc(Cl)cc23)c1F
How it was run: as §1

[6] = compound: CCCc1cc(C)[nH]c(=O)c1CNC(=O)c1cc(-c2ccnc(N3CCN(C)CC3)c2)cc2c1cnn2C(C)C
How it was run: as §1

givinostat = compound: CCN(CC)Cc1ccc2cc(COC(=O)Nc3ccc(C(=O)NO)cc3)ccc2c1 [givinostat]
How it was run: as §1

barasertib = compound: CCN(CCCOc1ccc2c(Nc3cc(CC(=O)Nc4cccc(F)c4)[nH]n3)ncnc2c1)CCOP(=O)(O)O [barasertib]
How it was run: as §1

Measured: log2 fold change

POLR3E (UniProt Q9NVU0)
inactive: [1] -0.017 | [2] -0.025 | [3] 0.006 | [4] -0.089 | Nexturastat A 0.005 | vemurafenib 0.075 | [5] 0.152 | [6] 0.113 | givinostat 0.081 | barasertib 0.066

POMK (UniProt Q9H5K3)
inactive: [1] 0.029 | [2] -0.018 | [3] 0.028 | [4] 0 | Nexturastat A -0.01 | vemurafenib 0.04 | [5] 0.041 | [6] 0 | givinostat 0.002 | barasertib 0.11

POMGNT1 isoform 2 (UniProt Q8WZA1)
inactive: [1] -0.067 | [2] 0 | [3] -0.081 | [4] -0.06 | Nexturastat A 0.073 | vemurafenib -0.05 | [5] -0.121 | [6] 0.322 | givinostat -0.017 | barasertib 0.001

POFUT2 (UniProt Q9Y2G5)
inactive: [1] -0.005 | [2] -0.022 | [3] -0.056 | [4] -0.111 | Nexturastat A 0.097 | vemurafenib -0.14 | [5] -0.094 | [6] 0.051 | givinostat -0.014 | barasertib 0

POLD3 (UniProt Q15054)
inactive: [1] -0.131 | [2] -0.055 | [3] 0.03 | [4] 0.007 | Nexturastat A -0.115 | vemurafenib 0.082 | [5] 0.049 | [6] 0.065 | givinostat 0.018 | barasertib 0.006

PPIB (UniProt P23284)
inactive: [1] 0 | [2] 0.011 | [3] -0.048 | [4] -0.045 | Nexturastat A 0.055 | vemurafenib -0.034 | [5] -0.058 | [6] 0.09 | givinostat -0.025 | barasertib -0.01

2 successive records already listed:
POMGNT1 isoform 2 (UniProt Q8WZA1)
inactive: [1] -0.067 | [2] 0 | [3] -0.081 | [4] -0.06 | Nexturastat A 0.073 | vemurafenib -0.05 | [5] -0.121 | [6] 0.322 | givinostat -0.017 | barasertib 0.001

POFUT2 (UniProt Q9Y2G5)
inactive: [1] -0.005 | [2] -0.022 | [3] -0.056 | [4] -0.111 | Nexturastat A 0.097 | vemurafenib -0.14 | [5] -0.094 | [6] 0.051 | givinostat -0.014 | barasertib 0

The results go on.

PLPP6 (UniProt Q8IY26)
inactive: [1] -0.091 | [2] 0.034 | [3] 0.24 | [4] -0.041 | Nexturastat A -0.096 | vemurafenib 0.034 | [5] 0.202 | [6] -0.075 | givinostat -0.064 | barasertib -0.012

PNP (UniProt P00491)
inactive: [1] -0.02 | [2] -0.007 | [3] -0.006 | [4] 0.004 | Nexturastat A -0.047 | vemurafenib -0.006 | [5] -0.017 | [6] -0.02 | givinostat -0.021 | barasertib -0.005

PLIN3 (UniProt O60664)
inactive: [1] 0.003 | [2] 0.04 | [3] 0.036 | [4] 0.052 | Nexturastat A -0.128 | vemurafenib -0.001 | [5] 0.015 | [6] -0.042 | givinostat -0.023 | barasertib -0.009

POLG (UniProt P54098)
inactive: [1] 0.042 | [2] 0.061 | [3] -0.038 | [4] -0.117 | Nexturastat A 0.069 | vemurafenib -0.111 | [5] -0.086 | [6] 0.032 | givinostat -0.004 | barasertib 0.031

POLR2G (UniProt P62487)
inactive: [1] 0.025 | [2] -0.033 | [3] 0.059 | [4] 0.057 | Nexturastat A -0.015 | vemurafenib -0.022 | [5] 0.009 | [6] -0.038 | givinostat -0.094 | barasertib -0.019

POLE3 (UniProt Q9NRF9)
inactive: [1] -0.022 | [2] 0.033 | [3] -0.042 | [4] -0.014 | Nexturastat A -0.05 | vemurafenib -0.003 | [5] 0 | [6] -0.022 | givinostat -0.027 | barasertib 0.008

POLR3F (UniProt Q9H1D9)
inactive: [1] -0.03 | [2] 0.015 | [3] -0.04 | [4] -0.007 | Nexturastat A -0.005 | vemurafenib 0.014 | [5] -0.027 | [6] 0.016 | givinostat 0.027 | barasertib -0.018

POU2F1 isoform 6 (UniProt P14859)
inactive: [1] 0.087 | [2] -0.007 | [3] 0.052 | [4] 0.127 | Nexturastat A -0.063 | vemurafenib 0.072 | [5] 0.24 | [6] -0.045 | givinostat 0.112 | barasertib 0.123

PMM1 (UniProt Q92871)
inactive: [1] -0.164 | [2] 0.007 | [3] -0.037 | [4] 0.027 | Nexturastat A -0.037 | vemurafenib -0.007 | [5] -0.012 | [6] -0.165 | givinostat -0.013 | barasertib -0.003

POP7 (UniProt O75817)
inactive: [1] 0.07 | [2] 0.012 | [3] 0 | [4] -0.01 | Nexturastat A 0.032 | vemurafenib -0.08 | [5] -0.02 | [6] -0.012 | givinostat 0.115 | barasertib 0.019

PPA2 (UniProt Q9H2U2)
inactive: [1] 0.011 | [2] 0 | [3] 0.011 | [4] 0.018 | Nexturastat A -0.045 | vemurafenib -0.031 | [5] -0.02 | [6] -0.03 | givinostat -0.01 | barasertib 0

PPAN isoform 3 (UniProt Q9NQ55)
inactive: [1] -0.006 | [2] 0 | [3] -0.125 | [4] -0.102 | Nexturastat A 0.264 | vemurafenib -0.198 | [5] -0.178 | [6] -0.146 | givinostat 0.179 | barasertib -0.02

POGLUT2 (UniProt Q6UW63)
inactive: [1] -0.035 | [2] -0.001 | [3] -0.052 | [4] -0.066 | Nexturastat A 0.133 | vemurafenib -0.098 | [5] -0.026 | [6] 0.019 | givinostat 0.025 | barasertib 0.001

POGLUT1 (UniProt Q8NBL1)
inactive: [1] -0.063 | [2] -0.027 | [3] -0.081 | [4] -0.024 | Nexturastat A -0.025 | vemurafenib -0.139 | [5] -0.034 | [6] 0.043 | givinostat 0.052 | barasertib -0.022

POGLUT3 (UniProt Q7Z4H8)
inactive: [1] 0.022 | [2] 0.05 | [3] -0.018 | [4] 0.037 | Nexturastat A -0.003 | vemurafenib -0.013 | [5] -0.062 | [6] 0.033 | givinostat -0.053 | barasertib -0.033

PLS1 (UniProt Q14651)
inactive: [1] 0.017 | [2] -0.023 | [3] 0.011 | [4] 0.021 | Nexturastat A -0.029 | vemurafenib 0.035 | [5] 0.051 | [6] -0.002 | givinostat 0.02 | barasertib -0.008

POLR3D (UniProt P05423)
inactive: [1] -0.078 | [2] 0.014 | [3] -0.01 | [4] -0.023 | Nexturastat A 0.153 | vemurafenib 0.03 | [5] 0.055 | [6] 0.104 | givinostat 0.065 | barasertib 0.098

POLR1C (UniProt O15160)
inactive: [1] -0.004 | [2] 0.052 | [3] -0.03 | [4] -0.048 | Nexturastat A 0.18 | vemurafenib 0 | [5] 0.12 | [6] 0.064 | givinostat 0.09 | barasertib 0.031

POLR2C (UniProt P19387)
inactive: [1] -0.097 | [2] -0.058 | [3] 0.038 | [4] -0.011 | Nexturastat A 0.126 | vemurafenib 0.021 | [5] 0.066 | [6] -0.005 | givinostat 0.042 | barasertib 0.022

POLD2 (UniProt P49005)
inactive: [1] 0.036 | [2] 0.017 | [3] 0.142 | [4] 0.04 | Nexturastat A 0.055 | vemurafenib 0.021 | [5] 0.004 | [6] -0.056 | givinostat 0.027 | barasertib 0.058

PPAT (UniProt Q06203)
inactive: [1] -0.015 | [2] -0.01 | [3] -0.024 | [4] 0.007 | Nexturastat A -0.041 | vemurafenib -0.015 | [5] -0.015 | [6] 0.031 | givinostat -0.015 | barasertib -0.01

POLA2 (UniProt Q14181)
inactive: [1] 0.073 | [2] 0.044 | [3] -0.037 | [4] 0.061 | Nexturastat A -0.011 | vemurafenib 0.034 | [5] 0.048 | [6] -0.02 | givinostat 0.021 | barasertib 0.021

PLOD3 (UniProt O60568)
inactive: [1] -0.023 | [2] -0.015 | [3] -0.028 | [4] -0.035 | Nexturastat A 0 | vemurafenib -0.05 | [5] -0.087 | [6] -0.002 | givinostat -0.006 | barasertib -0.029

POLA1 (UniProt P09884)
inactive: [1] -0.001 | [2] -0.029 | [3] -0.003 | [4] 0.052 | Nexturastat A -0.064 | vemurafenib 0.064 | [5] 0.053 | [6] 0.024 | givinostat 0.093 | barasertib 0.098
